Source: PubChem BioAssay AID1259254 (NCATS, 2017)
Shown is one part, drawn at random, of about 59,000 reagents. In the full data, about 1,550 (2.6%) got an active call. 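G2 share is only a proxy for re-replication; each gene was hit by three separate siRNAs, and active genes were retested.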 The raw values are shown without normalisation. Reagents against one gene are numbered here. Reagent sequences are not shown. Not given: the amount of reagent.

Assay: 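Gene knock-downs that lead to re-replication, shown by excess G2 DNA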 (primary screen)
Cell system: human HCT116 colorectal cancer cells
Reagent: single siRNA against human genes
Timing: 3 days
Detection: 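Nuclei stained with Hoechst and imaged; cell-cycle phase assigned by DNA content; G2 share scaled per plate, non-targeting siRNA 0%, GMNN siRNA 100%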
Reading the numbers: G2 robust z-score and G2 cells, % of GMNN control: higher = more G2 cells, more excess DNA replication; raw share of cells in G2: higher = larger share of cells with G2 DNA content
Call rule: 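An siRNA counts as active if its G2 robust z-score lies at least 5 MADs above the screen median; here such calls match roughly 38% of GMNN control or more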

gene | siRNA no. | G2 robust z-score | G2 cells, % of GMNN control | raw share of cells in G2 (%) | call
STRADBP1 (STE20-related kinase adaptor beta pseudogene 1) | 1 | -0.181 | 1.7 | 4.35 | inactive
STRADBP1 (STE20-related kinase adaptor beta pseudogene 1) | 2 | 0.278 | 4.92 | 5.55 | inactive
STRADBP1 (STE20-related kinase adaptor beta pseudogene 1) | 3 | -0.552 | -0.915 | 4.24 | inactive
NIPSNAP3B (nipsnap homolog 3B) | 1 | -0.132 | 2.04 | 5.31 | inactive
NIPSNAP3B (nipsnap homolog 3B) | 2 | 0.367 | 5.55 | 6.44 | inactive
NIPSNAP3B (nipsnap homolog 3B) | 3 | -0.289 | 0.937 | 3.44 | inactive
SRXN1 (sulfiredoxin 1) | 1 | -0.414 | 0.0568 | 3.85 | inactive
SRXN1 (sulfiredoxin 1) | 2 | 1.3 | 12.1 | 6.64 | inactive
SRXN1 (sulfiredoxin 1) | 3 | -0.444 | -0.154 | 3.01 | inactive
XRCC6 (X-ray repair cross complementing 6) | 1 | 2.29 | 19.1 | 12.2 | inactive
XRCC6 (X-ray repair cross complementing 6) | 2 | 1.39 | 12.7 | 10.1 | inactive
XRCC6 (X-ray repair cross complementing 6) | 3 | -0.593 | -1.2 | 3.23 | inactive
RPL36AP8 (ribosomal protein L36a pseudogene 8) | 1 | 6.05 | 45.5 | 19.6 | active
RPL36AP8 (ribosomal protein L36a pseudogene 8) | 2 | 0.155 | 4.06 | 4.33 | inactive
RPL36AP8 (ribosomal protein L36a pseudogene 8) | 3 | 0.134 | 3.91 | 5.12 | inactive
RABAC1 (Rab acceptor 1) | 1 | -1.05 | -4.42 | 3.33 | inactive
RABAC1 (Rab acceptor 1) | 2 | -0.753 | -2.33 | 2.97 | inactive
RABAC1 (Rab acceptor 1) | 3 | -0.365 | 0.399 | 3.55 | inactive
SEMA4G (semaphorin 4G) | 1 | -0.368 | 0.379 | 5.8 | inactive
SEMA4G (semaphorin 4G) | 2 | -0.281 | 0.993 | 4.7 | inactive
SEMA4G (semaphorin 4G) | 3 | 2.46 | 20.2 | 11.6 | inactive
CRPPA (CDP-L-ribitol pyrophosphorylase A) | 1 | -1.06 | -4.51 | 2.32 | inactive
CRPPA (CDP-L-ribitol pyrophosphorylase A) | 2 | -0.168 | 1.79 | 3.82 | inactive
CRPPA (CDP-L-ribitol pyrophosphorylase A) | 3 | -0.235 | 1.32 | 3.66 | inactive
SEC31B (SEC31 homolog B, COPII component) | 1 | 0.884 | 9.19 | 7.87 | inactive
SEC31B (SEC31 homolog B, COPII component) | 2 | 0.722 | 8.05 | 7.42 | inactive
SEC31B (SEC31 homolog B, COPII component) | 3 | -0.872 | -3.17 | 2.19 | inactive
SHISA8 (shisa family member 8) | 1 | -0.603 | -1.28 | 3.13 | inactive
SHISA8 (shisa family member 8) | 2 | 0.758 | 8.3 | 6.56 | inactive
SHISA8 (shisa family member 8) | 3 | -0.926 | -3.55 | 1.91 | inactive
ZNF778 (zinc finger protein 778) | 1 | 0.584 | 7.07 | 7.67 | inactive
ZNF778 (zinc finger protein 778) | 2 | 0.1 | 3.67 | 7.71 | inactive
ZNF778 (zinc finger protein 778) | 3 | -0.917 | -3.48 | 3.43 | inactive

The list goes on (9 carried over from the part before).
gene | siRNA no. | G2 robust z-score | G2 cells, % of GMNN control | raw share of cells in G2 (%) | call
SEC31B (SEC31 homolog B, COPII component) | 1 | 0.884 | 9.19 | 7.87 | inactive
SEC31B (SEC31 homolog B, COPII component) | 2 | 0.722 | 8.05 | 7.42 | inactive
SEC31B (SEC31 homolog B, COPII component) | 3 | -0.872 | -3.17 | 2.19 | inactive
SHISA8 (shisa family member 8) | 1 | -0.603 | -1.28 | 3.13 | inactive
SHISA8 (shisa family member 8) | 2 | 0.758 | 8.3 | 6.56 | inactive
SHISA8 (shisa family member 8) | 3 | -0.926 | -3.55 | 1.91 | inactive
ZNF778 (zinc finger protein 778) | 1 | 0.584 | 7.07 | 7.67 | inactive
ZNF778 (zinc finger protein 778) | 2 | 0.1 | 3.67 | 7.71 | inactive
ZNF778 (zinc finger protein 778) | 3 | -0.917 | -3.48 | 3.43 | inactive
MLLT6 (MLLT6, PHD finger containing) | 1 | -0.983 | -3.95 | 1.89 | inactive
MLLT6 (MLLT6, PHD finger containing) | 2 | 0.336 | 5.33 | 7.58 | inactive
MLLT6 (MLLT6, PHD finger containing) | 3 | -0.908 | -3.42 | 4.04 | inactive
ZNF621 (zinc finger protein 621) | 1 | -0.623 | -1.41 | 2.6 | inactive
ZNF621 (zinc finger protein 621) | 2 | -0.171 | 1.76 | 3.78 | inactive
ZNF621 (zinc finger protein 621) | 3 | 1.87 | 16.1 | 9.18 | inactive
RAB26 (RAB26, member RAS oncogene family) | 1 | 6.58 | 49.3 | 20.6 | active
RAB26 (RAB26, member RAS oncogene family) | 2 | 0.229 | 4.58 | 5.49 | inactive
RAB26 (RAB26, member RAS oncogene family) | 3 | 2.34 | 19.4 | 15 | inactive
KCNMB2 | 1 | -0.451 | -0.208 | 5.21 | inactive
KCNMB2 | 2 | 0.0431 | 3.27 | 5.89 | inactive
KCNMB2 | 3 | 3.31 | 26.2 | 14.6 | inactive
RPA1 (replication protein A1) | 1 | 1.37 | 12.6 | 8.33 | inactive
RPA1 (replication protein A1) | 2 | 1.18 | 11.3 | 8.98 | inactive
RPA1 (replication protein A1) | 3 | 3.03 | 24.3 | 13.3 | inactive
CICP18 (capicua transcriptional repressor pseudogene 18) | 1 | 5.61 | 42.4 | 19.8 | active
CICP18 (capicua transcriptional repressor pseudogene 18) | 2 | -0.891 | -3.3 | 2 | inactive
CICP18 (capicua transcriptional repressor pseudogene 18) | 3 | 0.9 | 9.3 | 6 | inactive
ZNF468 (zinc finger protein 468) | 1 | 0.076 | 3.5 | 4.3 | inactive
ZNF468 (zinc finger protein 468) | 2 | 0.225 | 4.55 | 4.74 | inactive
ZNF468 (zinc finger protein 468) | 3 | -0.438 | -0.117 | 3.48 | inactive
SLC13A4 | 1 | 0.408 | 5.84 | 8.81 | inactive
SLC13A4 | 2 | 0.056 | 3.36 | 5.09 | inactive
SLC13A4 | 3 | 2.82 | 22.8 | 11.8 | inactive
RAD21 (RAD21 cohesin complex component) | 1 | -0.151 | 1.9 | 5.78 | inactive
RAD21 (RAD21 cohesin complex component) | 2 | 1.75 | 15.3 | 10.3 | inactive
RAD21 (RAD21 cohesin complex component) | 3 | 2.27 | 18.9 | 10.2 | inactive
CNPY3 (canopy FGF signaling regulator 3) | 1 | 0.532 | 6.71 | 7.62 | inactive
CNPY3 (canopy FGF signaling regulator 3) | 2 | 0.163 | 4.11 | 5.83 | inactive
CNPY3 (canopy FGF signaling regulator 3) | 3 | -0.835 | -2.9 | 2.09 | inactive
NRBP2 (nuclear receptor binding protein 2) | 1 | 1.17 | 11.2 | 7.26 | inactive
NRBP2 (nuclear receptor binding protein 2) | 2 | -1.21 | -5.52 | 3.18 | inactive
NRBP2 (nuclear receptor binding protein 2) | 3 | 3.5 | 27.6 | 14.2 | inactive
HDGF (heparin binding growth factor) | 1 | 0.617 | 7.31 | 8.73 | inactive
HDGF (heparin binding growth factor) | 2 | 2.03 | 17.2 | 10.4 | inactive
HDGF (heparin binding growth factor) | 3 | 0.968 | 9.78 | 7.35 | inactive
NCCRP1 (NCCRP1, F-box associated domain containing) | 1 | 0.748 | 8.23 | 6.81 | inactive
NCCRP1 (NCCRP1, F-box associated domain containing) | 2 | 0.192 | 4.32 | 5.15 | inactive
NCCRP1 (NCCRP1, F-box associated domain containing) | 3 | 1.63 | 14.4 | 10 | inactive
SCGB3A1 (secretoglobin family 3A member 1) | 1 | 0.758 | 8.3 | 7.61 | inactive
SCGB3A1 (secretoglobin family 3A member 1) | 2 | 1.66 | 14.7 | 7.6 | inactive
SCGB3A1 (secretoglobin family 3A member 1) | 3 | 0.469 | 6.27 | 4.91 | inactive
IFNE (interferon epsilon) | 1 | 0.547 | 6.82 | 6.33 | inactive
IFNE (interferon epsilon) | 2 | -0.733 | -2.19 | 2.3 | inactive
IFNE (interferon epsilon) | 3 | 2.01 | 17.1 | 11.1 | inactive
ABTB1 (ankyrin repeat and BTB domain containing 1) | 1 | -0.764 | -2.41 | 3.44 | inactive
ABTB1 (ankyrin repeat and BTB domain containing 1) | 2 | -0.368 | 0.376 | 4.47 | inactive
ABTB1 (ankyrin repeat and BTB domain containing 1) | 3 | -0.853 | -3.04 | 1.55 | inactive
ASB1 (ankyrin repeat and SOCS box containing 1) | 1 | -0.607 | -1.31 | 3.14 | inactive
ASB1 (ankyrin repeat and SOCS box containing 1) | 2 | -0.0556 | 2.58 | 5.36 | inactive
ASB1 (ankyrin repeat and SOCS box containing 1) | 3 | 2.39 | 19.8 | 9.72 | inactive
PURG (purine rich element binding protein G) | 1 | -1.15 | -5.15 | 3.83 | inactive
PURG (purine rich element binding protein G) | 2 | -0.425 | -0.0234 | 4.18 | inactive
PURG (purine rich element binding protein G) | 3 | -0.417 | 0.0358 | 4 | inactive
